According to patent US8563000B2 (Ipsen Pharma S.A.S., priority 2007, dated 2013):

assay: general procedure: Fmoc solid-phase peptide synthesis; Rink Amide MBHA resin (0.78 mmol/g, Novabiochem); Wang resin for C-terminal acids; DIC/HOBT; details: whole synthesis, reverse-phase HPLC, C18, scale of the general procedure 0.105 mmoles

| Substance | final purity (method not given) |
| --- | --- |
| Hydantoin(C(O)-(A6c-Nle))-cyclo(Cys-D-Ala-His-D-Phe-Arg-Trp-Cys)-NH2 | 99.9% |
| Hydantoin(C(O)-(Aib-Gly))-cyclo(Cys-D-Ala-His-D-Phe-Arg-Trp-Cys)-NH2 | 99.9% |
| Hydantoin(C(O)-(Aib-Nle))-cyclo(Cys-D-Ala-His-D-Phe-Arg-Trp-Cys)-NH2 | 99.9% |
| Hydantoin(C(O)-(Ala-Gly))-cyclo(Cys-D-Ala-His-D-Phe-Arg-Trp-Cys)-NH2 | 99.9% |
| Hydantoin(C(O)-(Arg-Gly))-cyclo(Cys-D-Ala-His-D-2-Nal-Arg-Trp-Cys)-NH2 | 99.9% |
| Hydantoin(C(O)-(Arg-Gly))-cyclo(Cys-D-Ala-His-D-Phe-Arg-Trp-Cys)-NH2 | 99.0% |
| Hydantoin(C(O)-(Cha-Nle))-cyclo(Cys-D-Ala-His-D-Phe-Arg-Trp-Cys)-NH2 | 95.9% |
| Hydantoin(C(O)-(D-Ala-Gly))-cyclo(Cys-D-Ala-His-D-Phe-Arg-Trp-Cys)-NH2 | 98.2% |
| Hydantoin(C(O)-(D-Ala-Nle))-cyclo(Cys-D-Ala-His-D-Phe-Arg-Trp-Cys)-NH2 | 99.9% |
| Hydantoin(C(O)-(D-Arg-Gly))-cyclo(Cys-D-Ala-His-D-Phe-Arg-Trp-Cys)-NH2 | 97.0% |
| Hydantoin(C(O)-(D-Arg-Gly))-cyclo(Cys-Glu-His-D-Phe-Arg-Trp-Cys)-NH2 | 97.7% |
| Hydantoin(C(O)-(Gly-Arg))-cyclo(Cys-D-Ala-His-D-Phe-Arg-Trp-Cys)-NH2 | 98.0% |
| Hydantoin(C(O)-(Gly-Arg))-cyclo(Cys-Glu-His-D-Phe-Arg-Trp-Cys)-NH2 | 99.0% |
| Hydantoin(C(O)-(Gly-D-Arg))-cyclo(Cys-D-Ala-His-D-Phe-Arg-Trp-Cys)-NH2 | 95.0% |
| Hydantoin(C(O)-(Gly-Gly))-cyclo(Cys-D-Ala-His-D-Phe-Arg-Trp-Cys)-NH2 | 99.9% |
| Hydantoin(C(O)-(Gly-Gly))-cyclo(Cys-D-Ala-His-D-Phe-Arg-Trp-Pen)-NH2 | 99.9% |
| Hydantoin(C(O)-(Gly-Gly))-cyclo(Cys-Glu-His-D-Phe-Arg-Trp-Cys)-NH2 | 98.2% |
| Hydantoin(C(O)-(Ile-Gly))-cyclo(Cys-D-Ala-His-D-Phe-Arg-Trp-Cys)-NH2 | 98.7% |
| Hydantoin(C(O)-(Leu-Gly))-cyclo(Cys-D-Ala-His-D-Phe-Arg-Trp-Cys)-NH2 | 98.0% |
| Hydantoin(C(O)-(Leu-Nle))-cyclo(Cys-D-Ala-His-D-Phe-Arg-Trp-Cys)-NH2 | 95.5% |
| Hydantoin(C(O)-(Nle-Gly))-cyclo(Cys-D-Ala-His-D-Phe-Arg-Trp-Cys)-NH2 | 95.2% |

| Substance | final purity (method not given) |
| --- | --- |
| Hydantoin(C(O)-(Nle-Gly))-cyclo(Cys-D-Ala-His-D-Phe-Arg-Trp-Pen)-NH2 | 95.9% |
| Hydantoin(C(O)-(Nle-Gly))-cyclo(Cys-Glu-His-D-Phe-Arg-Trp-Cys)-NH2 | 95.6% |
| Hydantoin(C(O)-(Val-Gly))-cyclo(Cys-D-Ala-His-D-Phe-Arg-Trp-Cys)-NH2 | 96.9% |
| Hydantoin(C(O)-(Val-Nle))-cyclo(Cys-D-Ala-His-D-Phe-Arg-Trp-Cys)-NH2 | 97.9% |
| cyclo[Hydantoin(C(O)-(A6c-Cys))-D-Ala-His-D-Phe-Arg-Trp-Cys]-NH2 | 99.9% |
| cyclo[Hydantoin(C(O)-(Aib-Cys))-D-Ala-His-D-Phe-Arg-Trp-Cys]-NH2 | 99.9% |
| cyclo[Hydantoin(C(O)-(Asp-A3c))-D-2-Nal-Arg-Trp-Lys]-NH2 | 95.8% |
| cyclo[Hydantoin(C(O)-(Asp-A5c))-D-2-Nal-Arg-Trp-Lys]-NH2 | 98.5% |
| cyclo[Hydantoin(C(O)-(Asp-A6c))-D-2-Nal-Arg-Trp-Lys]-NH2 | 96.3% |
| cyclo[Hydantoin(C(O)-(Asp-Aic))-D-2-Nal-Arg-Trp-Lys]-NH2 | 99.9% |
| cyclo[Hydantoin(C(O)-(Asp-Apc))-D-2-Nal-Arg-Trp-Lys]-NH2 | 98.7% |
| cyclo[Hydantoin(C(O)-(Asp-D-Ala))-His-D-Phe-Arg-Trp-Dap]-NH2 | 97.0% |
| cyclo[Hydantoin(C(O)-(Asp-D-Ala))-His-D-Phe-Arg-Trp-Orn]-NH2 | 98.7% |
| cyclo[Hydantoin(C(O)-(Asp-His))-D-2-Nal-Arg-Trp-Lys]-NH2 | 96.0% |
| cyclo[Hydantoin(C(O)-(Glu-D-Ala))-His-D-Phe-Arg-Trp-Dab]-NH2 | 95.5% |
| cyclo[Hydantoin(C(O)-(Glu-D-Ala))-His-D-Phe-Arg-Trp-Lys]-NH2 | 99.9% |
| cyclo[Hydantoin(C(O)-(Glu-D-Ala))-His-D-Phe-Arg-Trp-Orn]-NH2 | 99.9% |
| cyclo[Hydantoin(C(O)-(Ile-Cys))-D-Ala-His-D-Phe-Arg-Trp-Cys]-NH2 | 99.9% |
| cyclo[Hydantoin(C(O)-(Leu-Cys))-D-Ala-His-D-Phe-Arg-Trp-Cys]-NH2 | 99.9% |
| cyclo[Hydantoin(C(O)-(Val-Cys))-D-Ala-His-D-Phe-Arg-Trp-Cys]-NH2 | 95.4% |
